Measurements taken from the supplement of paper PMC6411743.
± gives the standard deviation of the averaged measurements. Only a part is listed here, and it is no random draw. Most entries show no effect beyond the scatter of the controls.

Chains of the proteins cited; added tags and fusions are not shown. Lines headed by an entry give the natural chain unless they say otherwise; changes in a name come on top.
UniProt Q5JS54: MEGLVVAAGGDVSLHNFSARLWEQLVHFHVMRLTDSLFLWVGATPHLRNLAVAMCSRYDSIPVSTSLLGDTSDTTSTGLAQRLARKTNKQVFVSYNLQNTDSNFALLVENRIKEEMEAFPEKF
UniProt Q5JTJ3: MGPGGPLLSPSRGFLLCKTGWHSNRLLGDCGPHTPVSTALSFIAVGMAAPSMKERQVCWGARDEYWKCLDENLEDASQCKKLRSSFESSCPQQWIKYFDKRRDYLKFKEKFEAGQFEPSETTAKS
UniProt Q5RI15: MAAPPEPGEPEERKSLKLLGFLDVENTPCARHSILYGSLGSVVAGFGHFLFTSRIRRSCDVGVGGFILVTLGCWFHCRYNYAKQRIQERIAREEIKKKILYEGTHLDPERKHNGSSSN
UniProt Q6P4E1: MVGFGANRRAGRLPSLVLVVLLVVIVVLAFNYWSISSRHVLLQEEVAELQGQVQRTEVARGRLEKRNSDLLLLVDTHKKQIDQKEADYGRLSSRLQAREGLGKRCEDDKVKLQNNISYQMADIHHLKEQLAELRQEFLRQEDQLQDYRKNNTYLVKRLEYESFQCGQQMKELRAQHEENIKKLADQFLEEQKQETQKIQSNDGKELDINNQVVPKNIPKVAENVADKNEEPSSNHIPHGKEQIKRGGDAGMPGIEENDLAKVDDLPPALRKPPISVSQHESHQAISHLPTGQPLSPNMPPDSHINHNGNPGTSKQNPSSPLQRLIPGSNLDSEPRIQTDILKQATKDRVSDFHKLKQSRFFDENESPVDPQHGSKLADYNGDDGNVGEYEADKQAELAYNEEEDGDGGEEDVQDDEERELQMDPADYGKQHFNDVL
UniProt Q66K64, whole entry: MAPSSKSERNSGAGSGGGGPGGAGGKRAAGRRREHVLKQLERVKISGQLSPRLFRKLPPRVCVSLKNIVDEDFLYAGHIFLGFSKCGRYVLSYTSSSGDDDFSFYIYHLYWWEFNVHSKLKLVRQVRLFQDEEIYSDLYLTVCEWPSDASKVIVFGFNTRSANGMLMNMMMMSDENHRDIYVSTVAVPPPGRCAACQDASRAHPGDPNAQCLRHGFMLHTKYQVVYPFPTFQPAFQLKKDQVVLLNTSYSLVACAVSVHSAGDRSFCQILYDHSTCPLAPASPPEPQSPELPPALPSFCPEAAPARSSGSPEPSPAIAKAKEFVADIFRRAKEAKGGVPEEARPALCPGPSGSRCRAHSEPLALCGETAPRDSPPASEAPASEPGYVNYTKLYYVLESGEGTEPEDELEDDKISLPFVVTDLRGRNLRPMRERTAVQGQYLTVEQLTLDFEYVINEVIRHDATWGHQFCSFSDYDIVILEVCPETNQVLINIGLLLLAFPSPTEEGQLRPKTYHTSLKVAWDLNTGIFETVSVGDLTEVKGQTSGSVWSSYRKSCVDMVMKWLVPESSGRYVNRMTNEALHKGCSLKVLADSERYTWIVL
UniProt Q5VTL8: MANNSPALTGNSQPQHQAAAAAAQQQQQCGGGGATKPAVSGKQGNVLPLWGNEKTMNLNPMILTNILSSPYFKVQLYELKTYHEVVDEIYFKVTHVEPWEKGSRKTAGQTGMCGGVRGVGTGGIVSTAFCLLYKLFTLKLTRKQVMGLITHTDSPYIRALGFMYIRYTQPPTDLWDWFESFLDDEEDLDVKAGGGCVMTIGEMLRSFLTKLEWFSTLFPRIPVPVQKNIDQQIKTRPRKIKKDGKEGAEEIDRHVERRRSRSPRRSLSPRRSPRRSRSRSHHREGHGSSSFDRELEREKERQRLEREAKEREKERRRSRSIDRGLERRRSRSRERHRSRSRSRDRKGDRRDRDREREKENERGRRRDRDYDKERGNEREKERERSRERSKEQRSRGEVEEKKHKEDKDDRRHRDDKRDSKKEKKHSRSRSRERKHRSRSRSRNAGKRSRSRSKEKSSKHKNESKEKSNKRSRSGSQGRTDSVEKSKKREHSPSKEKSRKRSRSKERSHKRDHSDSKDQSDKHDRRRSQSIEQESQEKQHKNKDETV
UniProt Q5VTB9: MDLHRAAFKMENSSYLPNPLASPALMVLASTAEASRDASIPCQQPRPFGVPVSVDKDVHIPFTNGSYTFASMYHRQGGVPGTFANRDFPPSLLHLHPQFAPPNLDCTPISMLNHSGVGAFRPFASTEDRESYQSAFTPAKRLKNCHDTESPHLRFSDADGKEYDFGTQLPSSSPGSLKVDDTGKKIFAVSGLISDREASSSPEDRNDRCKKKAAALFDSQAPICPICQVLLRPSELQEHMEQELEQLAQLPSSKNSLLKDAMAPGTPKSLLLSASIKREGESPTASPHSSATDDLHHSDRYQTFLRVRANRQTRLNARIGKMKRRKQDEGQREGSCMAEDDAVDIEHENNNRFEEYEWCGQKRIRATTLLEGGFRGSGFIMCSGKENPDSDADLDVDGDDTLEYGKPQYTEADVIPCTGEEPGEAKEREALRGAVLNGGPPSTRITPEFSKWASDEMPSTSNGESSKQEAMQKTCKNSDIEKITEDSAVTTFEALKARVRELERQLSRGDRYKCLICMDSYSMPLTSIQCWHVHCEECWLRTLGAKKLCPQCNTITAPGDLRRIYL
UniProt Q53H12: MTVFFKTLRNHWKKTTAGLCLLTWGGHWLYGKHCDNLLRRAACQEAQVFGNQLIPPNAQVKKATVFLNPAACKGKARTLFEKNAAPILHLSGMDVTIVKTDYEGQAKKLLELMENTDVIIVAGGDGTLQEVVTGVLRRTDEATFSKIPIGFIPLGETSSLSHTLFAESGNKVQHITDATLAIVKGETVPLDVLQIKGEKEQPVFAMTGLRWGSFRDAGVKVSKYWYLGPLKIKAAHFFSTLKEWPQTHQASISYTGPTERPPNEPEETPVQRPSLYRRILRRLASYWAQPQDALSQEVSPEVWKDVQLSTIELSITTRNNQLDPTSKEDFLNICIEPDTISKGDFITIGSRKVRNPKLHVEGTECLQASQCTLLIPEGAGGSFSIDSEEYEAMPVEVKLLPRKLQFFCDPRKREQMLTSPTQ
UniProt Q5T447: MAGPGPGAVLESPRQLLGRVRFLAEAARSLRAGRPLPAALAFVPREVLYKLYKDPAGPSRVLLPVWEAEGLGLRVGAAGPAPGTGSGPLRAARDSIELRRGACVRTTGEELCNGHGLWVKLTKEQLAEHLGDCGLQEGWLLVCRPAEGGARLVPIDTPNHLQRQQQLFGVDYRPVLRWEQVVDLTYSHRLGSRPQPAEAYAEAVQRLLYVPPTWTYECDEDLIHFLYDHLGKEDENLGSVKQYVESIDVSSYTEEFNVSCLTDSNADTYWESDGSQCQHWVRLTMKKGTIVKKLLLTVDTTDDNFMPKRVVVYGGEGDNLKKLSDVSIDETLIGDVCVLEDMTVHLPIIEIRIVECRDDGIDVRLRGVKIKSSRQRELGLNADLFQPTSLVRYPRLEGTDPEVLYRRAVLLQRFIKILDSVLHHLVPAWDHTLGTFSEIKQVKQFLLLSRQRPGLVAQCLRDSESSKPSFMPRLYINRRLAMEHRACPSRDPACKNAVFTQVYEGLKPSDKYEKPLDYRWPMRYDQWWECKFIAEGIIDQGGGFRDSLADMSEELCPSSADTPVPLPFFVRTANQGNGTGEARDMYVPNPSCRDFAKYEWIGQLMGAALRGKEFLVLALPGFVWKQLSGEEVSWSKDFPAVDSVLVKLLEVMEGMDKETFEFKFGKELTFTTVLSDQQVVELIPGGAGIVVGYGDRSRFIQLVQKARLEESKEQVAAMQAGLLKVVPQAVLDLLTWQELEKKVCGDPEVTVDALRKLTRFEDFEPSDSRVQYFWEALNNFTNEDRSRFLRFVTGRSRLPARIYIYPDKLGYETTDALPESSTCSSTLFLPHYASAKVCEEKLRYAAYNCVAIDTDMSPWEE
UniProt Q4LDG9: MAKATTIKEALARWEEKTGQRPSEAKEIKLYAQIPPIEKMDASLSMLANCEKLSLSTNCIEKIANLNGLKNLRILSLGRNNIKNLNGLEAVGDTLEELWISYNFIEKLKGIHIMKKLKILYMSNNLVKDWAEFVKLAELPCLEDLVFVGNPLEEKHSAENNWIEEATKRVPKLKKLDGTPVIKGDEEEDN
UniProt Q5SSJ5: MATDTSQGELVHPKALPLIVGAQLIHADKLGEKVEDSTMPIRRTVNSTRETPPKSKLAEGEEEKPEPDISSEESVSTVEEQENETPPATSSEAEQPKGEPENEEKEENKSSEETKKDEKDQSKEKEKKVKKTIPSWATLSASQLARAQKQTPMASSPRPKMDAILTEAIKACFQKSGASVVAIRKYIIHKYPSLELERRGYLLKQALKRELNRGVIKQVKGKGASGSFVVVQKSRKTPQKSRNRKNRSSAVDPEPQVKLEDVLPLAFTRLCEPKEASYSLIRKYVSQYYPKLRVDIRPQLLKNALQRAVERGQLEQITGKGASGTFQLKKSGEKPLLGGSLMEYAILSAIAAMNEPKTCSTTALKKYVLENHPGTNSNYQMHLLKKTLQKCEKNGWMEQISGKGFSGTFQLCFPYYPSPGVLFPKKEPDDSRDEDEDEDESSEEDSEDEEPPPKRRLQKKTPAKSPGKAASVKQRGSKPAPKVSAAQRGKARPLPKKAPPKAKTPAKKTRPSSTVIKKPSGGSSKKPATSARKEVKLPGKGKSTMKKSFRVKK
UniProt Q6NXT6: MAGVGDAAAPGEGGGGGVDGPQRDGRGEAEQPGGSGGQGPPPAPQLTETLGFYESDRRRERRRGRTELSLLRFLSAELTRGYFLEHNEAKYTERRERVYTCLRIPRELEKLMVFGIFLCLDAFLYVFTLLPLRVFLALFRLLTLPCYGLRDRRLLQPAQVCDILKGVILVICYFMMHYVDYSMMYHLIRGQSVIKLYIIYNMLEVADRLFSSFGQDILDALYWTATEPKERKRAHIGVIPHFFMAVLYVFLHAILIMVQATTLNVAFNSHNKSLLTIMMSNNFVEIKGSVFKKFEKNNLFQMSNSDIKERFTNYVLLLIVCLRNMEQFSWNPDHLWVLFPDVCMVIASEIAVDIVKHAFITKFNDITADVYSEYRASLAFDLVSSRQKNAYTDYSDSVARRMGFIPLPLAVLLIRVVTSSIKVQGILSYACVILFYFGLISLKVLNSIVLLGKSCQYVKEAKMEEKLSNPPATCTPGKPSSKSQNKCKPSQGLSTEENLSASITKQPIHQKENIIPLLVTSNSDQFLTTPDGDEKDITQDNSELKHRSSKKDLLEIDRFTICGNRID
UniProt Q5TCQ9: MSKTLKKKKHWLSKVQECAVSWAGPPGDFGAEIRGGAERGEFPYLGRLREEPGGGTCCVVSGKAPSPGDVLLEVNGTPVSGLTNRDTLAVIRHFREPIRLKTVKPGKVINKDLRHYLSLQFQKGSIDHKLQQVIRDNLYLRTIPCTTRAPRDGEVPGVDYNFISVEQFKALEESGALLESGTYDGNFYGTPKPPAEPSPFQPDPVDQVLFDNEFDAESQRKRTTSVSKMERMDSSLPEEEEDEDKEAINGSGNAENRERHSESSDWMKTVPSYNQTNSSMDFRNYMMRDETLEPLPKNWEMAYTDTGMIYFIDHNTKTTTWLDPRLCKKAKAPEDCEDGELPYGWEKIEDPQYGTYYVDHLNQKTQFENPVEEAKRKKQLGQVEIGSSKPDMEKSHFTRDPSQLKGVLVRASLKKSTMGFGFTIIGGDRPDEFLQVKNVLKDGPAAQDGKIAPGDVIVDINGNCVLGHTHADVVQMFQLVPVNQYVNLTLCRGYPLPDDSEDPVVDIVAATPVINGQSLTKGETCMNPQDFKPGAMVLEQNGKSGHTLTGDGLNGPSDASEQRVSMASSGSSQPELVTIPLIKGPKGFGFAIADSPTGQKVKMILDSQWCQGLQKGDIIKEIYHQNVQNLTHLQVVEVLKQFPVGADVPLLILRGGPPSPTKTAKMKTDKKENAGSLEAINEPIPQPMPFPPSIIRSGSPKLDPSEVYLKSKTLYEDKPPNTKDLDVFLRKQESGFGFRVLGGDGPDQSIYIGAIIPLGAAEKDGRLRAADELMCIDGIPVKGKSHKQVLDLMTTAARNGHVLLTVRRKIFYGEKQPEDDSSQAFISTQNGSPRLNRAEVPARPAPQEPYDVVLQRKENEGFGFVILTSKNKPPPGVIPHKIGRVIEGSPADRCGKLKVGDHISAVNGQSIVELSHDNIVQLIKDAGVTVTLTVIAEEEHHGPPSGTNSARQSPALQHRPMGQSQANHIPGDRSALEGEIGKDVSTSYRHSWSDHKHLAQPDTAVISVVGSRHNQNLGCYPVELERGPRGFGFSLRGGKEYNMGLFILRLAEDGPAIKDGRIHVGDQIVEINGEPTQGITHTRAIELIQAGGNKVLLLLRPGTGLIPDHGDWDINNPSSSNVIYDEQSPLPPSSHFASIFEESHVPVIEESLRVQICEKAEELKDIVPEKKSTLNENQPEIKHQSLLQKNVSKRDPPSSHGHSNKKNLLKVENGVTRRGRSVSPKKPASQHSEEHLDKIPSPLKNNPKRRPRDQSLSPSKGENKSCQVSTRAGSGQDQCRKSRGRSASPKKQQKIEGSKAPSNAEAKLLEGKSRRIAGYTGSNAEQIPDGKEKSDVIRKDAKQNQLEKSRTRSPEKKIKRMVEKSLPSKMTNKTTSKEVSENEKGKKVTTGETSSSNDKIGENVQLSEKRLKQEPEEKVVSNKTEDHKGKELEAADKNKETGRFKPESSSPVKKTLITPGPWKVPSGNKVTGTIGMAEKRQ

Compound: Nc1ncnc2c1ncn2[C@@H]1O[C@H](COP(=O)(O)OP(=O)(O)OP(=O)(O)O)[C@@H](O)[C@H]1O [adenosine triphosphate]
Assay: NP40-soluble protein abundance relative to vehicle (solubility fold change) (ratio); higher = more soluble protein in presence of ATP
In short: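 Eight concentrations, 0.1 to 10 mM, were tested on Jurkat crude lysate for 10 min at room temperature and then 3 min at 37 °C, in three independent experiments. The lysate was solubilised with 0.8% NP40 and benzonase, ultracentrifuged, and the supernatant TMT-labelled for LC-MS/MS. Each value is the fold change against the detergent-processed vehicle in its own replicate, from vsn-normalised intensities.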

Target	NP40-soluble protein abundance (concentration: 0.1mM)	NP40-soluble protein abundance (concentration: 0.5mM)
UniProt Q5JS37 and related entries	1.01 ± 0.031	1.02 ± 0.032
ZNF326 (UniProt Q5BKZ1)	1.04 ± 0.058	1.14 ± 0.028
Q5VYH9 and related entries (UniProt Q9HBG7)	0.957 ± 0.081	0.939 ± 0.064
DDX59 (UniProt Q5T1V6)	1.02 ± 0.07	1.03 ± 0.046
UniProt Q53HC9 and related entries	1 ± 0.085	1.04 ± 0.067
UniProt Q6P444	0.857 ± 0.091	0.926 ± 0.027
SAMD9 (UniProt Q5K651)	1.06 ± 0.089	1.06 ± 0.087
SNRNP48 (UniProt Q6IEG0)	0.946 ± 0.16	1.2 ± 0.1
UniProt Q69YH5 and related entries	0.992 ± 0.025	0.958 ± 0.028
UniProt Q5VZL5 and related entries	1.03 ± 0.016	1.12 ± 0.053
LARP2 (UniProt Q659C4)	1.07 ± 0.32	1.04 ± 0.28
WDR73 (UniProt Q6P4I2)	1.09 ± 0.094	1.05 ± 0.1
UniProt Q5MNZ6	1.07 ± 0.12	1 ± 0.075
TWF2 (UniProt Q6IBS0)	1.02 ± 0.086	1.05 ± 0.053
UniProt Q6P1X6 and related entries	1.04 ± 0.051	0.966 ± 0.051
UniProt Q5JS54 and related entries	0.948 ± 0.06	0.91 ± 0.12
UniProt Q5T5C0 and related entries	1.04 ± 0.059	1.03 ± 0.12
SFT2D3 (UniProt Q587I9)	0.935 ± 0.097	0.893 ± 0.11
UniProt Q5JTJ3 and related entries	1.41 ± 0.57	0.9034 ± 0.0057
Q5T3Q7 and related entries (UniProt Q9H583)	1.07 ± 0.12	1.1 ± 0.073
LPCAT4 (UniProt Q643R3)	0.999 ± 0.035	1 ± 0.073
UniProt Q6GMV3	0.933 ± 0.11	0.873 ± 0.15
C9orf64 (UniProt Q5T6V5)	1.023 ± 0.0066	0.999 ± 0.018
UniProt Q6IQ49 and related entries	0.932 ± 0.022	0.929 ± 0.014

Target	NP40-soluble protein abundance (concentration: 0.1mM)	NP40-soluble protein abundance (concentration: 0.5mM)
UniProt Q5TEU4 and related entries	1.05 ± 0.06	1.1 ± 0.082
TRMT12 (UniProt Q53H54)	1.03 ± 0.033	1.04 ± 0.062
UniProt Q6P1N0 and related entries	1.01 ± 0.026	1.01 ± 0.037
UniProt Q5RI15 and related entries	1.06 ± 0.089	1.09 ± 0.17
UniProt Q5VW36 and related entries	0.944 ± 0.068	0.9 ± 0.079
UniProt Q6FIF0 and related entries	0.957 ± 0.061	0.96 ± 0.08
UniProt Q5TKA1 and related entries	1.02 ± 0.036	1.02 ± 0.033
UniProt Q6JQN1 and related entries	1 ± 0.1	0.977 ± 0.079
Q5JTV1 and related entries (UniProt Q9UKD1)	1.06 ± 0.033	1.08 ± 0.079
UniProt Q6P587 and related entries	0.964 ± 0.02	1.04 ± 0.016
UniProt Q4VC05 and related entries	0.81 ± 0.044	0.872 ± 0.17
UniProt Q5VW32	0.992 ± 0.043	1.02 ± 0.052
UniProt Q6PD74 and related entries	0.985 ± 0.045	0.99 ± 0.072
UniProt Q5TDH0 and related entries	1.02 ± 0.023	1.03 ± 0.054
MIA3 (UniProt Q5JRA6)	0.978 ± 0.019	0.986 ± 0.024
UniProt Q6P4E1 and related entries	0.908 ± 0.11	0.815 ± 0.16
RFWD3 (UniProt Q6PCD5)	0.956 ± 0.043	1.07 ± 0.08
DCAF15 (UniProt Q66K64)	1.06 ± 0.099	1.04 ± 0.14
UniProt Q6GYQ0 and related entries	0.998 ± 0.025	0.972 ± 0.061
NOL9 (UniProt Q5SY16)	0.97 ± 0.054	0.919 ± 0.021
RNF123 (UniProt Q5XPI4)	0.985 ± 0.038	0.971 ± 0.028
UniProt Q5JVF3 and related entries	1.06 ± 0.083	1.04 ± 0.082
PRPF38B (UniProt Q5VTL8)	1.1 ± 0.018	1.25 ± 0.1
EXOSC6 (UniProt Q5RKV6)	0.965 ± 0.076	0.932 ± 0.034

Target	NP40-soluble protein abundance (concentration: 0.1mM)	NP40-soluble protein abundance (concentration: 0.5mM)
UniProt Q53EL6 and related entries	0.974 ± 0.061	1.23 ± 0.11
UniProt Q6P087 and related entries	0.92 ± 0.099	0.952 ± 0.17
UniProt Q5VTB9 and related entries	0.958 ± 0.021	0.9555 ± 0.002
AGK (UniProt Q53H12)	1.01 ± 0.044	1.02 ± 0.046
UniProt Q6PCB8 and related entries	0.913 ± 0.057	0.922 ± 0.079
UniProt Q5VIR6-4	0.997 ± 0.01	0.994 ± 0.033
UniProt Q69YQ0 and related entries	0.94 ± 0.12	0.96 ± 0.084
UniProt Q6N043 and related entries	1.06 ± 0.054	1.06 ± 0.05
UniProt Q53GT1 and related entries	0.977 ± 0.063	1.01 ± 0.046
RAB12 (UniProt Q6IQ22)	1.07 ± 0.044	1.04 ± 0.051
HECTD3 (UniProt Q5T447)	1.02 ± 0.057	1.04 ± 0.032
DNAL1 (UniProt Q4LDG9)	0.961 ± 0.1	0.831 ± 0.18
UniProt Q6PCB7 and related entries	1.06 ± 0.059	1.05 ± 0.13
UniProt Q5T3J3	0.962 ± 0.042	1.02 ± 0.075
PHLDB3 (UniProt Q6NSJ2)	1.01 ± 0.11	0.994 ± 0.095
TOR2A (UniProt Q5JU69)	1.06 ± 0.029	0.95 ± 0.078
UniProt Q5W0B1	0.941 ± 0.063	0.898 ± 0.073
Q5TBP9 and related entries (UniProt Q9BX40)	0.974 ± 0.028	1.06 ± 0.04
RSBN1L (UniProt Q6PCB5)	1.06 ± 0.044	1.25 ± 0.057
UniProt Q5MIZ7-2|Q5MIZ7-3	1.01 ± 0.011	1.02 ± 0.065
HP1BP3 (UniProt Q5SSJ5)	0.974 ± 0.018	1.03 ± 0.048
UniProt Q5SWX8 and related entries	0.965 ± 0.052	1.03 ± 0.039
UniProt Q6GQQ9 and related entries	1.09 ± 0.032	1.05 ± 0.046
TBC1D10B (UniProt Q4KMP7)	1.01 ± 0.028	1.02 ± 0.029

Target	NP40-soluble protein abundance (concentration: 0.1mM)	NP40-soluble protein abundance (concentration: 0.5mM)
ARHGAP15 (UniProt Q53QZ3)	1.04 ± 0.056	1.11 ± 0.051
UniProt Q5T440	1.04 ± 0.037	1.005 ± 0.01
MRPL54 (UniProt Q6P161)	0.983 ± 0.049	0.998 ± 0.039
UniProt Q68D10 and related entries	0.978 ± 0.038	0.99 ± 0.029
MYSM1 (UniProt Q5VVJ2)	1.01 ± 0.024	0.987 ± 0.053
UniProt Q5JPI3 and related entries	1.01 ± 0.16	0.9 ± 0.14
GKAP1 (UniProt Q5VSY0)	1.03 ± 0.038	1.08 ± 0.13
INTS5 (UniProt Q6P9B9)	1.12 ± 0.15	1.1 ± 0.16
UniProt Q5EBL8 and related entries	0.976 ± 0.18	0.925 ± 0.12
CIAPIN1 (UniProt Q6FI81)	0.964 ± 0.023	0.98 ± 0.011
UniProt Q6ICL3 and related entries	1.1 ± 0.19	1.04 ± 0.15
Q5VZM2-2|Q7L523 (UniProt Q7L523+Q5VZM2)	1.16 ± 0.13	1.13 ± 0.066
MRM1 (UniProt Q6IN84)	0.994 ± 0.1	1.07 ± 0.13
UniProt Q6DHV7-2|Q6DHV7 and related entries	1.03 ± 0.022	1.02 ± 0.055
LACTB2 (UniProt Q53H82)	1.03 ± 0.018	1.04 ± 0.048
UniProt Q6P1X5 and related entries	1.06 ± 0.036	1.06 ± 0.079
UniProt Q5TA45 and related entries	1.02 ± 0.032	1.06 ± 0.043
ANKRD39 (UniProt Q53RE8)	0.919 ± 0.04	0.952 ± 0.062
COQ5 (UniProt Q5HYK3)	0.999 ± 0.099	0.973 ± 0.021
RABL3 (UniProt Q5HYI8)	1.06 ± 0.019	1.04 ± 0.098
UniProt Q6NTF9 and related entries	0.939 ± 0.047	0.919 ± 0.058
MANEA (UniProt Q5SRI9)	1.033 ± 0.0048	0.959 ± 0.095
UniProt Q5VWN6	1.17 ± 0.12	1.15 ± 0.11
NXN (UniProt Q6DKJ4)	0.9 ± 0.12	1 ± 0.11

Target	NP40-soluble protein abundance (concentration: 0.1mM)	NP40-soluble protein abundance (concentration: 0.5mM)
UniProt Q68CQ4	1.05 ± 0.05	1.07 ± 0.075
UniProt Q6IAA8	0.917 ± 0.063	0.875 ± 0.12
UniProt Q5T5Y3 and related entries	1.01 ± 0.06	1.01 ± 0.084
TAPT1 (UniProt Q6NXT6)	1.04 ± 0.035	1.03 ± 0.049
PMF1 (UniProt Q6P1K2)	0.996 ± 0.042	0.948 ± 0.05
Q5STZ8 and related entries (UniProt Q8NE71)	1.04 ± 0.062	1.04 ± 0.034
UniProt Q58WW2 and related entries	1.03 ± 0.069	1.024 ± 0.0094
ADNP2 (UniProt Q6IQ32)	0.991 ± 0.13	1.011 ± 0.0053
UniProt Q5T0F9 and related entries	1.02 ± 0.039	1.01 ± 0.052
UniProt Q5JPF3	1.01 ± 0.028	0.958 ± 0.097
MRPL14 (UniProt Q6P1L8)	0.962 ± 0.081	0.977 ± 0.15
Q5VZU9 and related entries (UniProt P29144)	1.05 ± 0.069	1.06 ± 0.051
UniProt Q6P996 and related entries	1.05 ± 0.038	1.04 ± 0.063
UniProt Q5FWF5	1.11 ± 0.11	1.13 ± 0.022
UniProt Q5T0N5-3|Q5T0N5-4	1.02 ± 0.014	1.02 ± 0.028
CPTP (UniProt Q5TA50)	1.01 ± 0.018	0.985 ± 0.044
UniProt Q5T2E6 and related entries	1.03 ± 0.054	1.08 ± 0.14
UniProt Q68CZ6	0.983 ± 0.021	1 ± 0.033
UniProt Q5TCQ9 and related entries	0.957 ± 0.17	0.967 ± 0.1
TYW3 (UniProt Q6IPR3)	0.993 ± 0.12	0.992 ± 0.11
NAIF1 (UniProt Q69YI7)	1.03 ± 0.19	0.917 ± 0.029
UniProt Q4LE39 and related entries	0.974 ± 0.018	1.02 ± 0.075
ALKBH5 (UniProt Q6P6C2)	1.01 ± 0.014	1.25 ± 0.032
UniProt Q69YN4 and related entries	1.02 ± 0.044	1.06 ± 0.056

Some values from the entries so far.
ADNP2 (UniProt Q6IQ32) – NP40-soluble protein abundance (concentration: 0.5mM): 1.011 ± 0.0053
TAPT1 (UniProt Q6NXT6) – NP40-soluble protein abundance (concentration: 0.1mM): 1.04 ± 0.035

Whole records as entered above. Order of values: NP40-soluble protein abundance (concentration: 0.1mM)	NP40-soluble protein abundance (concentration: 0.5mM)
TAPT1 (UniProt Q6NXT6) is entered as 1.04 ± 0.035	1.03 ± 0.049
MRM1 (UniProt Q6IN84) is entered as 0.994 ± 0.1	1.07 ± 0.13
